{
  "source": "PubChem BioAssay AID256",
  "about": "(DTP/NCI, 2004)",
  "test_system": "CD2F1 mice, L1210 leukemia ip, survival T/C",
  "assay": "NCI In Vivo Anticancer Drug Screen. Data for tumor model L1210 Leukemia (intraperitoneal) in CD2F1 (CDF1) mice",
  "settings": "higher T/C = longer survival",
  "in_short": "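Antitumor effect is scored in animals hosting a serially transplanted tumor. Values compare compound-dosed animals against vehicle-only controls as a simple quotient.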",
  "key": {"[1]": {"settings": "T/C endpoint: mean survival time, dose: 600.0 mg/kg/injection, schedule: Q01DX001 (ip), vehicle: saline"}, "[2]": {"settings": "T/C endpoint: mean survival time, dose: 400.0 mg/kg/injection, schedule: Q01DX009 (ip), vehicle: saline with Tween-80"}},
  "note": "The list does not hold the whole screen: it is rich in T/C values a quarter to a half above the control, in often repeated tests (any T/C) and in doses without a T/C. Other doses and runs of a compound stand elsewhere. T/C: endpoint of the treated group in % of that of the vehicle group. Some doses have a count of surviving animals in place of a T/C: the source holds a T/C of zero for them, seemingly a mark for toxic or unscored doses. Some doses without a T/C left all or most animals alive at the check, yet need not have been tolerated: survival well below the control is almost never listed, so the zero probably covers shortened survival too. Survivors were counted at the toxicity check, usually on the fifth day, unless a day is given; later deaths do not show. Schedule codes are those of the source, taken here to give the interval after Q, in days (D) or hours (H), and the number of doses after X. Some entries hold several experiments; their values stand side by side, smallest first. Where survival is the endpoint, this PubChem deposit counts one and a half times the control or more as active, and values a quarter to a half above the control carry no call in these data; other NCI protocols may use other cut-offs. Some T/C values carry the count of animals alive at the toxicity check (mostly the fifth day); without a count, all were alive then.",
  "data": [
    {"smiles": "Cc1ccc(C(=O)c2ccc(C)cc2)cc1", "values": [
      {"measurement": "survivor count", "setting": "T/C endpoint: mean survival time, dose: 800.0 mg/kg/injection, schedule: Q04DX002 (ip), vehicle: saline", "value": "0 of 6"}
    ]},
    {"smiles": "CS(=O)(=O)OCCN(CCOS(C)(=O)=O)c1cccc(F)c1", "values": [
      {"measurement": "survivor count", "setting": "T/C endpoint: mean survival time, dose: 178.0 mg/kg/injection, schedule: Q01DX001 (ip), vehicle: saline", "value": "0 of 6"},
      {"measurement": "survivor count", "setting": "T/C endpoint: mean survival time, dose: 267.0 mg/kg/injection, schedule: Q01DX001 (ip), vehicle: saline", "value": "2 of 6"},
      {"measurement": "survivor count", "setting": "T/C endpoint: mean survival time, dose: 400.0 mg/kg/injection, schedule: Q01DX001 (ip), vehicle: saline", "value": "1 of 6"},
      {"measurement": "survivor count", "setting": "[1]", "value": "1 of 6"}
    ]},
    {"smiles": "CC1NC(=O)OC12CCCCC2", "note": "(centres undefined)", "values": [
      {"measurement": "survivor count", "setting": "[2]", "value": "3 of 6"}
    ]},
    {"smiles": "Cn1cnc([N+](=O)[O-])c1Sc1nc(N)nc2nc[nH]c12", "values": [
      {"measurement": "T/C", "setting": "T/C endpoint: mean survival time, dose: 5.0 mg/kg/injection, schedule: Q01DX007 (ip), vehicle: Klucel (hydroxypropylcellulose) (HPC)", "value": "136 % of control"},
      {"measurement": "T/C", "setting": "T/C endpoint: mean survival time, dose: 5.0 mg/kg/injection, schedule: Q01DX009 (ip), vehicle: Klucel (hydroxypropylcellulose) (HPC)", "value": "141 % of control"},
      {"measurement": "T/C", "setting": "T/C endpoint: mean survival time, dose: 5.0 mg/kg/injection, schedule: Q04DX003 (ip), vehicle: Klucel (hydroxypropylcellulose) (HPC)", "value": "149 % of control"},
      {"measurement": "T/C", "setting": "T/C endpoint: mean survival time, dose: 10.0 mg/kg/injection, schedule: Q01DX009 (ip), vehicle: Klucel (hydroxypropylcellulose) (HPC)", "value": "141 % of control"},
      {"measurement": "T/C", "setting": "T/C endpoint: mean survival time, dose: 10.0 mg/kg/injection, schedule: Q04DX003 (ip), vehicle: Klucel (hydroxypropylcellulose) (HPC)", "value": "143 % of control"},
      {"measurement": "T/C", "setting": "T/C endpoint: mean survival time, dose: 20.0 mg/kg/injection, schedule: Q01DX009 (ip), vehicle: Klucel (hydroxypropylcellulose) (HPC)", "value": "131 % of control"},
      {"measurement": "T/C", "setting": "T/C endpoint: mean survival time, dose: 20.0 mg/kg/injection, schedule: Q04DX003 (ip), vehicle: Klucel (hydroxypropylcellulose) (HPC)", "value": "149 % of control"}
    ]},
    {"smiles": "Nc1nc(=S)c2ncn(C3OC(CO)C(O)C3O)c2[nH]1", "note": "(centres undefined)", "values": [
      {"measurement": "T/C", "setting": "T/C endpoint: mean survival time, dose: 8.0 mg/kg/injection, schedule: Q01DX005 (ip), vehicle: saline + alcohol", "value": "145 % of control"},
      {"measurement": "T/C", "setting": "T/C endpoint: mean survival time, dose: 10.0 mg/kg/injection, schedule: Q01DX007 (ip), vehicle: saline", "value": "134 % of control"},
      {"measurement": "T/C", "setting": "T/C endpoint: mean survival time, dose: 10.0 mg/kg/injection, schedule: Q01DX009 (ip), vehicle: saline", "value": "137 % of control"},
      {"measurement": "T/C", "setting": "T/C endpoint: mean survival time, dose: 16.0 mg/kg/injection, schedule: Q01DX005 (ip), vehicle: saline + alcohol", "value": "141 % of control"},
      {"measurement": "T/C", "setting": "T/C endpoint: mean survival time, dose: 18.8 mg/kg/injection, schedule: Q01DX009 (ip), vehicle: saline", "value": "140 % of control"},
      {"measurement": "T/C", "setting": "T/C endpoint: mean survival time, dose: 20.0 mg/kg/injection, schedule: Q01DX009 (ip), vehicle: saline", "value": "137 % of control"},
      {"measurement": "survivor count", "setting": "T/C endpoint: mean survival time, dose: 40.0 mg/kg/injection, schedule: Q01DX007 (ip), vehicle: saline", "value": "6 of 6"},
      {"measurement": "T/C", "setting": "T/C endpoint: mean survival time, dose: 40.0 mg/kg/injection, schedule: Q03DX003 (ip), vehicle: saline", "value": "140 % of control"},
      {"measurement": "survivor count", "setting": "T/C endpoint: mean survival time, dose: 150.0 mg/kg/injection, schedule: Q01DX009 (ip), vehicle: saline", "value": "4 of 6"},
      {"measurement": "T/C", "setting": "[1]", "value": "144 % of control [5 of 6 alive]"}
    ]},
    {"smiles": "CCC1(OC(=O)CN2CCN(CCO)CC2)C(=O)OCc2c1cc1n(c2=O)Cc2cc3ccccc3nc2-1", "note": "(centres undefined)", "values": [
      {"measurement": "T/C", "setting": "T/C endpoint: median survival time, dose: 50.0 mg/kg/injection, schedule: Q04DX002 (ip), vehicle: water", "value": "138 and 142 % of control"}
    ]},
    {"smiles": "CC1(C)C(=O)OCC2=C1CCCC2", "values": [
      {"measurement": "survivor count", "setting": "T/C endpoint: mean survival time, dose: 75.0 mg/kg/injection, schedule: Q01DX001 (ip), vehicle: saline", "value": "0 of 6"},
      {"measurement": "survivor count", "setting": "T/C endpoint: mean survival time, dose: 150.0 mg/kg/injection, schedule: Q01DX001 (ip), vehicle: saline", "value": "0 of 6"},
      {"measurement": "survivor count", "setting": "T/C endpoint: mean survival time, dose: 300.0 mg/kg/injection, schedule: Q01DX001 (ip), vehicle: saline", "value": "0 of 6"}
    ]},
    {"smiles": "O=C(O)/C(=C\\c1cccc([N+](=O)[O-])c1)c1ccccc1", "values": [
      {"measurement": "survivor count", "setting": "T/C endpoint: mean survival time, dose: 400.0 mg/kg/injection, schedule: Q01DX001 (ip), vehicle: saline with Tween-80", "value": "2 of 6"},
      {"measurement": "survivor count", "setting": "[2]", "value": "1 of 6 and 2 of 3"}
    ]}
  ]
}
